Results are given in words; binding and its absence hold for the method and conditions named. Some results given as binding are weak or reduced against the parent protein; the word gives no strength.
Biological target: vitronectin (UniProt P04004)
Assay: AFM single-cell force spectroscopy (adhesion force and single rupture events); single fibroblast on a ConA-coated cantilever brought onto glass coated with 50 μg/ml substrate protein, contact force 1 nN, contact times 5-120 s, retraction at 2-40 μm/s, 37 °C, SCFS medium pH 7.2; only the target purified

Sequences of proteins named here, by UniProt entry; tags and fusion partners are left off. A change or cut given only in a name is not applied to a line headed by its entry. Residues count along the entry.
UniProt P04004, residues 20-478: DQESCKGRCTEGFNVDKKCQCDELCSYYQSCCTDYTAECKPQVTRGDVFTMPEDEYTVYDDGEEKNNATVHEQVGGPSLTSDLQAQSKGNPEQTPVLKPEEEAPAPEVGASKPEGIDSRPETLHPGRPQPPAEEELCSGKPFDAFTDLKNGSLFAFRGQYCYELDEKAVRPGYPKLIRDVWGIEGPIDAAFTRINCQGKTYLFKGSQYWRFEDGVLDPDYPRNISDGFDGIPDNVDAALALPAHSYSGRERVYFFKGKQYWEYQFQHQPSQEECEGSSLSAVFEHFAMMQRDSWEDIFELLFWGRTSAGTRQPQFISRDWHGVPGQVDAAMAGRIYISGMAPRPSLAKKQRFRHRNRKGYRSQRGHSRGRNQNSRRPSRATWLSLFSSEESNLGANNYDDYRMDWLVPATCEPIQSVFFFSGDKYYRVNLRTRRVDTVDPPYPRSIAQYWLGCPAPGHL
UniProt P43406: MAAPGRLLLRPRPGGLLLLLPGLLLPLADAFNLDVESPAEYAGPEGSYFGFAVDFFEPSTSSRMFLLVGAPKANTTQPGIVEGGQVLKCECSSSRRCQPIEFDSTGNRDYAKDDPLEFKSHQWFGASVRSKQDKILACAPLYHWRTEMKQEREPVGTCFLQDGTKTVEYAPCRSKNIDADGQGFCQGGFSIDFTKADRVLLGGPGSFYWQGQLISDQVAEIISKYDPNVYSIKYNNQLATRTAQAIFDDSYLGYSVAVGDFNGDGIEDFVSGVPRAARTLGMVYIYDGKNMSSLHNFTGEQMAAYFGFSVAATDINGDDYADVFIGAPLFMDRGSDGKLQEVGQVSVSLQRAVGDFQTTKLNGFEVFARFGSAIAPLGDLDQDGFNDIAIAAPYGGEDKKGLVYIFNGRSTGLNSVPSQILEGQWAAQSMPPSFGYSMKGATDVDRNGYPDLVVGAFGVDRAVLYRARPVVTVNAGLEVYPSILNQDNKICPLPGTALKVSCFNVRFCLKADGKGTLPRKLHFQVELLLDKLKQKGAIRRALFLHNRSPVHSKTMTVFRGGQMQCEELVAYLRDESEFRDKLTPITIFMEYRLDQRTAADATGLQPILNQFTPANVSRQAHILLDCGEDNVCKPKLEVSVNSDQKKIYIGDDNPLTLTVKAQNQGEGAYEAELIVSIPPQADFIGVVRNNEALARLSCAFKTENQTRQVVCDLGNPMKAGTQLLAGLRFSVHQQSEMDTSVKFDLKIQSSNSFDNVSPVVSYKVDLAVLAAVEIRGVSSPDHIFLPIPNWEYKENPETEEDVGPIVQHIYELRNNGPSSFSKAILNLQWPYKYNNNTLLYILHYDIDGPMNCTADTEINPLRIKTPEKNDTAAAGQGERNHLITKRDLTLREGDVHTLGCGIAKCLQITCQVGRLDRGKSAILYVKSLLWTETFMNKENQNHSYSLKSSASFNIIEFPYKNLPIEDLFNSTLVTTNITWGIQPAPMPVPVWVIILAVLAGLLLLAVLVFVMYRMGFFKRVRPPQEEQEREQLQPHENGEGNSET

Row | binding | Substance
1 | binds | αVβ3 integrin (from UniProt P43406 31-1044; O54890 26-787) (receptor)
2 | binds | αVβ5 integrin (from UniProt P43406 31-1044; O70309 24-798) (receptor)

— PMC13601624
